Test results taken from the supplement of paper PMC12542422.
Counter-ions that a name gives are not always drawn. ± gives the standard deviation of the averaged measurements. This is one part of the list. Values are raw readings; no control value is given beside them.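 Ribosome-assembly readouts in HeLa cells were imaged via ENP1 staining, with or without export block, or inducible tagged ribosomal protein reporters. Machine learning classified per-cell signal location versus solvent (DMSO) controls. Hits surpassed the DMSO false-positive mean by five standard deviations and were visually confirmed; three biological replicates.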

system: HeLa RPL29-GFP reporter; test: fraction of reporter-positive cells with nuclear (nucleolar or nucleolar/nucleoplasmic) RPL29-GFP (MainHitrate); higher = more cells with nucleolar/nuclear readout signal (for ENP1 -LMB: less RNAPI inhibition; for +LMB ENP1 and RP reporters: stronger nuclear/nucleolar retention, i.e. ribosome biogenesis defect); details: concentration: 1 µM; treatment time: 6 h

Compound | fraction of reporter-positive cells with nuclear
CCCCCCCCCCCCCCCCCCCCCCO [Docosanol (Abreva)] | 0.201 ± 0.084
Clc1ccc2nsnc2c1NC1=NCCN1 [Tizanidine HCl] | 0.202 ± 0.076
COc1cc(C(=O)NS(=O)(=O)c2ccccc2C)ccc1Cc1cn(C)c2ccc(NC(=O)OC3CCCC3)cc12 [Zafirlukast (Accolate)] | 0.198 ± 0.074
Cc1nc(-c2ccc(OCC(C)C)c(C#N)c2)sc1C(=O)O [Febuxostat (Uloric)] | 0.192 ± 0.047
COc1nc(N)nc2c1ncn2[C@@H]1O[C@H](CO)[C@@H](O)[C@@H]1O [Nelarabine (Arranon)] | 0.197 ± 0.052
S=c1[nH]cnc2nc[nH]c12 [Mercaptopurine] | 0.221 ± 0.069
Cc1ccc(-c2cc(C(F)(F)F)nn2-c2ccc(S(N)(=O)=O)cc2)cc1 [Celecoxib] | 0.201 ± 0.076
O=C(Nc1ccc([N+](=O)[O-])cc1Cl)c1cc(Cl)ccc1O [Niclosamide (Niclocide)] | 0.222 ± 0.086
CCCCCCCCCC(=O)N[C@H]1[C@H](Oc2c3cc4cc2Oc2ccc(cc2Cl)[C@@H](O[C@@H]2O[C@H](CO)[C@@H](O)[C@H](O)[C@H]2NC(C)=O)[C@@H]2NC(=O)[C@H](NC(=O)[C@@H]4NC(=O)[C@H]4NC(=O)[C@@H](Cc5ccc(c(Cl)c5)O3)NC(=O)[C@H](N)c3ccc(O)c(c3)Oc3cc(O)cc4c3)c3ccc(O)c(c3)-c3c(OC4O[C@H](CO)[C@@H](O)[C@H](O)[C@@H]4O)cc(O)cc3[C@@H](C(=O)O)NC2=O)O[C@H](CO)[C@@H](O)[C@@H]1O (some centres undefined) [Teicoplanin] | 0.197 ± 0.081
O=C(Nc1c(Cl)cncc1Cl)c1ccc(OC(F)F)c(OCC2CC2)c1 [Roflumilast (Daxas)] | 0.243 ± 0.069
C[C@@H](O)[C@H]1C(=O)N2C(C(=O)O)=C(S[C@@H]3CN[C@H](CNS(N)(=O)=O)C3)[C@H](C)[C@H]12 [Doripenem Hydrate] | 0.226 ± 0.11
Cc1c(OCC(F)(F)F)ccnc1C[S+]([O-])c1nc2ccccc2[nH]1 (centres undefined) [Lansoprazole] | 0.186 ± 0.056
COc1ccc2cccc(CCNC(C)=O)c2c1 [Agomelatine] | 0.194 ± 0.073
O=C(O)c1ccc(NC(=O)[C@H](Cc2ccc(O)cc2)NC(=O)c2ccccc2)cc1 [Bentiromide] | 0.29 ± 0.25
CS(=O)(=O)Nc1ccc([N+](=O)[O-])cc1Oc1ccccc1 [Nimesulide] | 0.237 ± 0.11
OC[C@@H](O)[C@@H](O)[C@H](O)[C@@H](O)CO [Sorbitol (Glucitol)] | 0.227 ± 0.085
CCn1cc(C(=O)O)c(=O)c2cc(F)c(N3CCNCC3)cc21 [Norfloxacin (Norxacin)] | 0.21 ± 0.045
C=C1/C(=C\C=C2/CCC[C@]3(C)[C@@H]([C@H](C)CCCC(C)(C)O)CC[C@@H]23)C[C@@H](O)C[C@@H]1O [Calcitriol (Rocaltrol)] | 0.212 ± 0.041
N=C(N)Nc1ccc(C(=O)Oc2ccc3cc(C(=N)N)ccc3c2)cc1 [Nafamostat mesylate] | 0.193 ± 0.064
COC(=O)C1=C(C)NC(C)=C(C(=O)OCC(C)C)C1c1ccccc1[N+](=O)[O-] (centres undefined) [Nisoldipine (Sular)] | 0.195 ± 0.061

Compound | fraction of reporter-positive cells with nuclear
CCOc1ccccc1OC(c1ccccc1)C1CNCCO1 (centres undefined) [Reboxetine mesylate] | 0.209 ± 0.04
COc1cc(C(C)=O)ccc1OCCCN1CCC(c2noc3cc(F)ccc23)CC1 [Iloperidone (Fanapt)] | 0.205 ± 0.041
CCC(C)(C)c1ccc(CC(C)CN2C[C@@H](C)O[C@@H](C)C2)cc1 (some centres undefined) [Amorolfine Hydrochloride] | 0.237 ± 0.075
Clc1ccc(CSC(Cn2ccnc2)c2ccc(Cl)cc2Cl)cc1 (centres undefined) [Sulconazole Nitrate] | 0.226 ± 0.086
CC(=O)OCC(=O)NCCCOc1cccc(CN2CCCCC2)c1 [Roxatidine acetate HCl] | 0.207 ± 0.054
Nc1nc(=O)c2c([nH]1)NC[C@H](CNc1ccc(C(=O)N[C@@H](CCC(=O)O)C(=O)O)cc1)N2C=O [Calcium levofolinate (Calcium Folinate)] | 0.203 ± 0.092
Cn1nnc2c(C(N)=O)ncn2c1=O [Methazolastone] | 0.198 ± 0.067
CCCc1nn(C)c2c(=O)[nH]c(-c3cc(S(=O)(=O)N4CCN(C)CC4)ccc3OCC)nc12 [Sildenafil citrate] | 0.235 ± 0.08
Cc1c(N(C)C)c(=O)n(-c2ccccc2)n1C [Amidopyrine] | 0.205 ± 0.055
C[C@]12C=CC(=O)C=C1CC[C@H]1[C@@H]3C[C@@H](O)[C@](O)(C(=O)CO)[C@@]3(C)C[C@H](O)[C@@]12F [Triamcinolone (Aristocort)] | 0.274 ± 0.11
CCCCCCCN(CC)CCCC(O)c1ccc(NS(C)(=O)=O)cc1 (centres undefined) [Ibutilide fumarate] | 0.223 ± 0.076
CN(C)CCC(c1ccc(Cl)cc1)c1ccccn1 (centres undefined) [Chlorpheniramine Maleate] | 0.235 ± 0.076
CNCCC(Oc1ccc(C(F)(F)F)cc1)c1ccccc1 (centres undefined) [Fluoxetine  HCl] | 0.204 ± 0.05
COc1cc(/C=C/C(=O)N2CCN(CC(=O)N3CCCC3)CC2)cc(OC)c1OC [Cinepazide maleate] | 0.211 ± 0.07
CCOc1cc(N)c(Cl)cc1C(=O)NCC1CN(Cc2ccc(F)cc2)CCO1 (centres undefined) [Mosapride citrate] | 0.209 ± 0.053
CC1(C)S[C@@H]2[C@H](NC(=O)[C@H](NC(=O)N3CCNC3=O)c3ccccc3)C(=O)N2[C@H]1C(=O)O [Azlocillin sodium salt] | 0.21 ± 0.073
CS(=O)(=O)c1ccc(C2=C(c3ccccc3)C(=O)OC2)cc1 [Rofecoxib (Vioxx)] | 0.218 ± 0.075
COc1c(N2C[C@@H]3CCCN[C@@H]3C2)c(F)cc2c(=O)c(C(=O)O)cn(C3CC3)c12 [Moxifloxacin hydrochloride] | 0.201 ± 0.028
COc1cc2c(cc1O)CC[C@@H]1[C@@H]2CC[C@]2(C)[C@@H](O)CC[C@@H]12 [2-Methoxyestradiol] | 0.241 ± 0.07

Sorted by heavy-atom count (ascending): part of the list above
Compound | fraction of reporter-positive cells with nuclear
CN(C)CCC(c1ccc(Cl)cc1)c1ccccn1 (centres undefined) [Chlorpheniramine Maleate] | 0.235 ± 0.076
Clc1ccc(CSC(Cn2ccnc2)c2ccc(Cl)cc2Cl)cc1 (centres undefined) [Sulconazole Nitrate] | 0.226 ± 0.086
O=C(O)c1ccc(NC(=O)[C@H](Cc2ccc(O)cc2)NC(=O)c2ccccc2)cc1 [Bentiromide] | 0.29 ± 0.25
